Among the data in article PMC8157759 are binding values, retold here.

Assay [1] deals with T1, DACH1 (human (endogenous in MHCC-97H and Huh-7)) (UniProt Q9UI36).
T1 sequence: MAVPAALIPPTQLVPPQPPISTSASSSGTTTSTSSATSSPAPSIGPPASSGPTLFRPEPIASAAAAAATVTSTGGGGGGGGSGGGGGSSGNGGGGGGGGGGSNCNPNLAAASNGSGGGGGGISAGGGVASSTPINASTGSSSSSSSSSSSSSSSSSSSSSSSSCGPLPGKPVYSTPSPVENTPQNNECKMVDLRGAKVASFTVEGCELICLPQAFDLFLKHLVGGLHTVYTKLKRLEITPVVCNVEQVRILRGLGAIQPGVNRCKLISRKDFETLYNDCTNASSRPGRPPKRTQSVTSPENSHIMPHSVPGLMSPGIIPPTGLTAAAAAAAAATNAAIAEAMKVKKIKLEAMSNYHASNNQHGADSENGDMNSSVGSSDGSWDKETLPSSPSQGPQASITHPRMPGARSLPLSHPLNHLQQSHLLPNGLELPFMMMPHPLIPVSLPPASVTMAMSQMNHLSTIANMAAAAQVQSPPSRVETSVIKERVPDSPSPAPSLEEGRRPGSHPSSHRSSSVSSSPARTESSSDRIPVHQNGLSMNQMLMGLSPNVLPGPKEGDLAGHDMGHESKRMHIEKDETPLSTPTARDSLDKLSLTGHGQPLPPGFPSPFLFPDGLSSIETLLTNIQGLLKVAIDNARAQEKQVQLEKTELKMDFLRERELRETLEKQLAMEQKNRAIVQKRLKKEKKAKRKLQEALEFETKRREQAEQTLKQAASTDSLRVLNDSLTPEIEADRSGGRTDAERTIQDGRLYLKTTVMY
Put plainly: co-IP; endogenous proteins in MHCC-97H and Huh-7 cells; precipitated with anti-EYA2 antibody (DACH1 detected) and with anti-DACH1 antibody (EYA2 detected).

Assay [2] has as its target T2, Eyes absent homolog 2 (human (endogenous in MHCC-97H and Huh-7)) (UniProt O00167).
T2 sequence: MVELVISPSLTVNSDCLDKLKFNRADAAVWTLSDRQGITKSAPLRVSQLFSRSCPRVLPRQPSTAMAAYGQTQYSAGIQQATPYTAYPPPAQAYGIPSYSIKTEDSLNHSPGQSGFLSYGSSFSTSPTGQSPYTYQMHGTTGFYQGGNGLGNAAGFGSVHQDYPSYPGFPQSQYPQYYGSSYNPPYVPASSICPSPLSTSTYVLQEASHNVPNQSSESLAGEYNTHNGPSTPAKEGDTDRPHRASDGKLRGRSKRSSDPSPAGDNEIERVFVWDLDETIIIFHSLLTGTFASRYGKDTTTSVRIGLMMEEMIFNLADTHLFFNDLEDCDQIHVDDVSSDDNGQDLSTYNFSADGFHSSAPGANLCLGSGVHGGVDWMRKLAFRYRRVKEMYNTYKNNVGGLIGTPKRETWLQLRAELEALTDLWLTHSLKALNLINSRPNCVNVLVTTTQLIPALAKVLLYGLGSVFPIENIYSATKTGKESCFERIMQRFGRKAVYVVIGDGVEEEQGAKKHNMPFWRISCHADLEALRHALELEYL
The assay is described as above.

These are yes or no findings as the source states them, for the method shown. In cells and extracts the contact can be indirect. Some binding calls cover weakened binding; strength is not graded here.

B1: Eyes absent homolog 2 (protein, UniProt O00167 1-538)
chain: MVELVISPSLTVNSDCLDKLKFNRADAAVWTLSDRQGITKSAPLRVSQLFSRSCPRVLPRQPSTAMAAYGQTQYSAGIQQATPYTAYPPPAQAYGIPSYSIKTEDSLNHSPGQSGFLSYGSSFSTSPTGQSPYTYQMHGTTGFYQGGNGLGNAAGFGSVHQDYPSYPGFPQSQYPQYYGSSYNPPYVPASSICPSPLSTSTYVLQEASHNVPNQSSESLAGEYNTHNGPSTPAKEGDTDRPHRASDGKLRGRSKRSSDPSPAGDNEIERVFVWDLDETIIIFHSLLTGTFASRYGKDTTTSVRIGLMMEEMIFNLADTHLFFNDLEDCDQIHVDDVSSDDNGQDLSTYNFSADGFHSSAPGANLCLGSGVHGGVDWMRKLAFRYRRVKEMYNTYKNNVGGLIGTPKRETWLQLRAELEALTDLWLTHSLKALNLINSRPNCVNVLVTTTQLIPALAKVLLYGLGSVFPIENIYSATKTGKESCFERIMQRFGRKAVYVVIGDGVEEEQGAKKHNMPFWRISCHADLEALRHALELEYL
For B1, the binding entry in assay [1] is “binds”.

B2: DACH1 (protein, UniProt Q9UI36 1-758)
chain: MAVPAALIPPTQLVPPQPPISTSASSSGTTTSTSSATSSPAPSIGPPASSGPTLFRPEPIASAAAAAATVTSTGGGGGGGGSGGGGGSSGNGGGGGGGGGGSNCNPNLAAASNGSGGGGGGISAGGGVASSTPINASTGSSSSSSSSSSSSSSSSSSSSSSSSCGPLPGKPVYSTPSPVENTPQNNECKMVDLRGAKVASFTVEGCELICLPQAFDLFLKHLVGGLHTVYTKLKRLEITPVVCNVEQVRILRGLGAIQPGVNRCKLISRKDFETLYNDCTNASSRPGRPPKRTQSVTSPENSHIMPHSVPGLMSPGIIPPTGLTAAAAAAAAATNAAIAEAMKVKKIKLEAMSNYHASNNQHGADSENGDMNSSVGSSDGSWDKETLPSSPSQGPQASITHPRMPGARSLPLSHPLNHLQQSHLLPNGLELPFMMMPHPLIPVSLPPASVTMAMSQMNHLSTIANMAAAAQVQSPPSRVETSVIKERVPDSPSPAPSLEEGRRPGSHPSSHRSSSVSSSPARTESSSDRIPVHQNGLSMNQMLMGLSPNVLPGPKEGDLAGHDMGHESKRMHIEKDETPLSTPTARDSLDKLSLTGHGQPLPPGFPSPFLFPDGLSSIETLLTNIQGLLKVAIDNARAQEKQVQLEKTELKMDFLRERELRETLEKQLAMEQKNRAIVQKRLKKEKKAKRKLQEALEFETKRREQAEQTLKQAASTDSLRVLNDSLTPEIEADRSGGRTDAERTIQDGRLYLKTTVMY
In the case of B2, the binding result in assay [2] is on record as “binds”.
